In paper PMC6407599 (Journal of Enzyme Inhibition and Medicinal Chemistry, 2019):

Experiment: general procedure: Fmoc solid-phase peptide synthesis; 2-chlorotrityl chloride resin; DIC/HOBt (HOAt for hindered couplings); HATU, TBTU, DMTMM with DIPEA for macrocy
Conditions: whole synthesis, overall

Substance | isolated yield
PEPTIDE1{[Lys(Cbz)].N.[Ser(Ac)].[Tyr(Ac)].A}$PEPTIDE1,PEPTIDE1,1:R1-5:R2$$$V2.0 | 28% overall
PEPTIDE1{[Lys(Cbz)].N.[Ser(Ac)].[Tyr(Ac)].F}$PEPTIDE1,PEPTIDE1,1:R1-5:R2$$$V2.0 | 24% overall

Some peptides are written in HELM: one residue between dots, names in brackets for other building blocks, links after the first $.
